Values quoted from earlier work in patent US4609675A, “Stable, high dose, high bulk density ibuprofen granulations for tablet and capsule manufacturing” (priority 1984, dated 1986).

Settings: in words

CC(C)Cc1ccc(C(C)C(=O)O)cc1 (stereo not shown) [Ibuprofen, 2-(4-isobutylphenyl)-propionic acid]
water solubility: poorly water soluble
